# Drug screen on melanoma cell lines: cell count

From a melanoma drug combination screen (doi:10.1371/journal.pone.0140310); values rounded.

Drugs:
XAV939 (2 µM): Oc1nc(-c2ccc(C(F)(F)F)cc2)nc2c1CSCC2
PD173074 (0.1 µM): CCN(CC)CCCCNc1ncc2cc(-c3cc(OC)cc(OC)c3)c(NC(=O)NC(C)(C)C)nc2n1
GSK0660 (1 µM): COC(=O)c1sccc1S(=O)(=O)Nc1ccc(Nc2ccccc2)cc1OC
GW441756 (0.4 µM): Cn1cc(/C=C2\C(=O)Nc3cccnc32)c2ccccc21
enzastaurin (0.8 µM): Cn1cc(C2=C(c3cn(C4CCN(Cc5ccccn5)CC4)c4ccccc34)C(=O)NC2=O)c2ccccc21
embelin (1.2 µM): CCCCCCCCCCCC1=C(O)C(=O)C=C(O)C1=O
vincristine (0.0001 µM): CC[C@]1(O)C[C@H]2CN(CCc3c([nH]c4ccccc34)[C@@](C(=O)OC)(c3cc4c(cc3OC)N(C=O)[C@H]3[C@@](O)(C(=O)OC)[C@H](OC(C)=O)[C@]5(CC)C=CCN6CC[C@]43[C@@H]65)C2)C1
BI-78D3 (0.2 µM): O=c1[nH]nc(Sc2ncc([N+](=O)[O-])s2)n1-c1ccc2c(c1)OCCO2
KU-55933 (1 µM): O=c1cc(-c2cccc3c2Sc2ccccc2S3)oc(N2CCOCC2)c1

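The test systems are human melanoma cell lines, treated with two drugs together for 72 h and then stained and imaged. Each value is the count of nuclei relative to DMSO-treated wells, in %, so that 100 equals the control. Every drug was used at one fixed concentration, the lower of two screened (a fifth of the higher). These are primary screening values without error estimates.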 This is part of the screen, not chosen by result. A dash means that no value is listed here.

Drugs | 501mel | A2058 | C32 | A101D | A375
enzastaurin + GW441756 | 96.8 | 101 | 102 | 92.0 | -
XAV939 + enzastaurin | 88.6 | 84.3 | 102 | 97.8 | -
GW441756 + vincristine | 113 | 21.0 | 86.9 | 63.8 | -
GW441756 + KU-55933 | 104 | 132 | 82.1 | 105 | 126
KU-55933 + GSK0660 | 98.2 | 89.0 | 86.3 | 109 | 93.8
BI-78D3 + PD173074 | 84.5 | 111 | 89.6 | 90.6 | -
vincristine + GSK0660 | - | 24.3 | 83.9 | 57.4 | -
KU-55933 + PD173074 | 104 | 102 | 107 | 116 | 106
PD173074 + enzastaurin | 74.9 | 89.9 | 93.4 | 93.8 | -
PD173074 + vincristine | 128 | 50.4 | 92.5 | 77.1 | -
PD173074 + XAV939 | 99.2 | 88.5 | 101 | 109 | 103
BI-78D3 + embelin | 106 | 86.4 | 95.8 | 112 | -
XAV939 + BI-78D3 | 108 | 74.4 | 92.0 | 90.6 | -
enzastaurin + GSK0660 | 104 | 88.0 | 128 | 87.6 | -
GW441756 + BI-78D3 | 105 | 95.1 | 133 | 99.4 | -
embelin + PD173074 | 109 | 104 | 104 | 120 | 116
embelin + enzastaurin | 88.7 | 122 | 94.9 | 95.5 | -
GW441756 + PD173074 | 106 | 107 | 95.4 | 88.8 | 109
BI-78D3 + GSK0660 | 98.4 | 93.9 | 90.6 | 93.5 | -
GW441756 + GSK0660 | 109 | 96.9 | 96.7 | 91.1 | 95.2
GW441756 + XAV939 | 87.9 | 89.9 | 87.9 | 99.6 | 93.0
vincristine + embelin | 80.6 | 23.6 | 76.6 | 2.9 | -
XAV939 + embelin | 104 | 78.3 | 103 | 79.9 | 102
XAV939 + vincristine | 97.6 | 28.9 | 87.8 | 58.4 | -
GSK0660 + embelin | 123 | 103 | 94.1 | 107 | 110
KU-55933 + vincristine | 64.5 | 15.5 | 53.8 | 67.3 | -
KU-55933 + enzastaurin | 89.3 | 101 | 99.9 | 90.2 | -
KU-55933 + BI-78D3 | 85.0 | 109 | 74.5 | 109 | -
XAV939 + GSK0660 | 90.4 | 85.7 | 92.5 | 97.2 | 111
GSK0660 + PD173074 | 95.9 | 91.9 | 98.9 | 93.6 | 98.8

Some entries from above, unchanged:

Drugs,501mel,A2058,C32,A101D,A375
PD173074 + XAV939,99.2,88.5,101,109,103
enzastaurin + GSK0660,104,88.0,128,87.6,-
GW441756 + PD173074,106,107,95.4,88.8,109